Measured values from paper PMC5554785.
No constants are given. Whether binding was seen depends on the method and setting. In cells and extracts the contact can be indirect. Binding can be weak; no strength is given. For some assays here: Where a sequence is shown, tags or fusion partners need not be part of it.

T1: germline nuclear Argonaute HRDE-1 (C. elegans) (UniProt Q09249)
T1 sequence: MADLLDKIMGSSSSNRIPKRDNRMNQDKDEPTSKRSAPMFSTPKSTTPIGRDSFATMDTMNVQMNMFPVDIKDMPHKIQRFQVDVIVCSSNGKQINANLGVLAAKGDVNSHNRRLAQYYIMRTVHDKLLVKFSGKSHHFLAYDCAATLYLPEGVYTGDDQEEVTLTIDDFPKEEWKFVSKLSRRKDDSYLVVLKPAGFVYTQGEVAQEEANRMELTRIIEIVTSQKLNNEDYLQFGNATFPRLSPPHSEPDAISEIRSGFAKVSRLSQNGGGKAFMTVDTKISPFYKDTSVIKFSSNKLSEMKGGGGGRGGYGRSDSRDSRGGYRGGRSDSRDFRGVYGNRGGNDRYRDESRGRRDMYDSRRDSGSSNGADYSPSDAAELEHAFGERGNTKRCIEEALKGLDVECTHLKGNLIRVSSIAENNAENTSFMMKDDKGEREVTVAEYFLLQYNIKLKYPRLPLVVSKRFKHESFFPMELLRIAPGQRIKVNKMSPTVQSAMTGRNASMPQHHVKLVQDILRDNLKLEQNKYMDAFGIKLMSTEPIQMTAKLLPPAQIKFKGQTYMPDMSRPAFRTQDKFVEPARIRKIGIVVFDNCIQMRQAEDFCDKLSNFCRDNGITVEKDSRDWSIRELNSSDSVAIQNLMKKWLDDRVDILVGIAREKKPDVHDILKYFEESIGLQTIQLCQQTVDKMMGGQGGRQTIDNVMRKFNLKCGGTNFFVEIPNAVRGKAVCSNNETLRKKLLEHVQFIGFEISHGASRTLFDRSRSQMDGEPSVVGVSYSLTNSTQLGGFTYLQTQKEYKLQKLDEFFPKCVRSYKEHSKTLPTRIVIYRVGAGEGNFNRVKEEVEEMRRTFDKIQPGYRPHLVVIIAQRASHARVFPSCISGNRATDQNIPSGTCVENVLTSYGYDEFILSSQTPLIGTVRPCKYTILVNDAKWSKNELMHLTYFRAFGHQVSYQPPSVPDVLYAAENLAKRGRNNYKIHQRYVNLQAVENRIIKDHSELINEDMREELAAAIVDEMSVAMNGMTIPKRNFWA

B1: FLAG-tagged version of HRDE-1 (protein, UniProt Q09249 1-1032)
chain: T1 sequence

Assays:
[1] = molecular target: T1, germline nuclear Argonaute HRDE-1 (C. elegans); assay: co-IP; anti-HRDE-1 IP (IgG negative control) from lysate of the OLLAS-EMB-4 strain in DROSO buffer with 0.1% NP-40, with or without RNaseA for 30 min at room temperature before the antibody, overnight at 4°C; western blot with anti-Ollas
[2] = molecular target: RNA helicase Aquarius/EMB-4 (C. elegans); assay: co-IP; IP with EMB-4 antibody or anti-Flag (no antibody control) from gravid adult lysate of the FLAG-HRDE-1 strain in DROSO complete buffer, two hours at 4°C; western blot with anti-EMB-4 or anti-FLAG

Molecule	binding [1]	binding [2]
OLLAS-EMB-4 (CRISPR-tagged endogenous EMB-4) (C. elegans)	binds	
B1		binds
